Measured values as given in PMC5662243.
Results are given in words; binding and its absence hold for the method and conditions named. Binding seen in cells or lysates may run through a third protein. Some results given as binding are weak or reduced against the parent protein; the word gives no strength.

Amino acid sequences for entries named in this document (tags omitted).
UniProt Q92993: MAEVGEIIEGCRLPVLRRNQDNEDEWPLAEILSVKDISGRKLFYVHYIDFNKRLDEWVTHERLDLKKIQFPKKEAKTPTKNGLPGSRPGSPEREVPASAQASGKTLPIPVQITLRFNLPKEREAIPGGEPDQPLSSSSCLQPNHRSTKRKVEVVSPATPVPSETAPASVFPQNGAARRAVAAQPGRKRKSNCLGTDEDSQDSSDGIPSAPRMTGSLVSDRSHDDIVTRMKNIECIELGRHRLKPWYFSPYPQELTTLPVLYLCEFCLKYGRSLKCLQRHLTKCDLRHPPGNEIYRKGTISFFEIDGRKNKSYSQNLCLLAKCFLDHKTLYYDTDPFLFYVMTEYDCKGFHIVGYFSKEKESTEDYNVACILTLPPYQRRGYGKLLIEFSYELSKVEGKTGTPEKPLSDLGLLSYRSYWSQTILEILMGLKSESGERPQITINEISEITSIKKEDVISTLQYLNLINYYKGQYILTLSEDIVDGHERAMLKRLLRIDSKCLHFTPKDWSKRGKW
UniProt P08047: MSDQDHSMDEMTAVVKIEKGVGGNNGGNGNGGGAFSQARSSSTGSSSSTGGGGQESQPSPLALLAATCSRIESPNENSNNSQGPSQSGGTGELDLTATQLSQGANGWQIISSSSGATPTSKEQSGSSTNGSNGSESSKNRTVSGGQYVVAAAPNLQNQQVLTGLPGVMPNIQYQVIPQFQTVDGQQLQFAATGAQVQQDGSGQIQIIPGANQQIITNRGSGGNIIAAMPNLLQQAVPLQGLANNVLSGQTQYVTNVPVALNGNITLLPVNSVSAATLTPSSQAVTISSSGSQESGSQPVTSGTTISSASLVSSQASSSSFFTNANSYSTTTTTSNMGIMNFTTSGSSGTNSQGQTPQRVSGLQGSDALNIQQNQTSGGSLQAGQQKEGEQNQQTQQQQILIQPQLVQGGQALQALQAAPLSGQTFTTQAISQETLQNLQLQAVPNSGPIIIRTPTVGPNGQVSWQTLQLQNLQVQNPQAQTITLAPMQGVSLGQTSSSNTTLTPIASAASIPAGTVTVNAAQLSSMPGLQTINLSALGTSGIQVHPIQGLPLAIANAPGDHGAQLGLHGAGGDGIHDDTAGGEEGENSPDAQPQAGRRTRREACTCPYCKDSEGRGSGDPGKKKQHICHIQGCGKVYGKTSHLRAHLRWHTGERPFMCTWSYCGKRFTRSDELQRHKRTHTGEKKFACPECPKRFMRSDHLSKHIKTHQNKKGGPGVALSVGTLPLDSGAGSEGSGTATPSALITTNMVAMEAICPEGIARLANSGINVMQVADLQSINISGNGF

Target: HIV-1 TAT Interactive protein (TIP60) (human (endogenous in HeLa)) (UniProt Q92993)
Experiment: co-IP; HeLa cell lysate immunoprecipitated overnight with the endogenous TIP60 antibody; interacting Sp1 detected by western blotting; done in the absence and in the presence of DNAse

- binding: binds
Substance: Specificity Protein 1 (Sp1) (from UniProt P08047 1-785)
